Construct, isoform or probe ends are uncertain for at least one entry.
Tests used:
Experiment in all cases: X-ray crystallography
Details in all cases: binary post-catalytic complex, closed finger, 20 mM MgCl2 in duplex preparation, primer S9 enzymatically extended with two TNA residues (3'-tTtA-2') at positions 12-13, rest DNA, Crystallization: duplex in 50 mM Tris-HCl pH 8.5, 200 mM NaCl, 0.1 mM EDTA, 1 mM DTT, hanging drop, recombinant protein, protein details: tagless, label: 5'-Cy5 on template T1, letters put together from the description
[1] = tested on: 8-64 TNAP
[2] = tested on: 7-47 TNAP
[3] = tested on: 5-270 TNAP
[4] = tested on: 10-92 TNAP

Measured: binding result

CGCGAACTGCGTA / AAACGTACGCAGTTCGCG [P/T1 duplex extended with tTtA (binary)]
binds: [1] | [2] | [3] | [4]
